Values from PubChem BioAssay AID743121 (NCATS, 2013).
Purpose: 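Partners whose loss is lethal together with topoisomerase I blockade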 (primary screen). Cell system: MDA-MB-231 cells, a human breast cancer line. Knock-down reagent: single siRNA against human genes, 20 nM siRNA (0.8 pmol per well). Duration: 120 h (drug added 48 h after transfection, read 72 h later). Treatment: camptothecin 20 nM (about EC30) for 72 h; vehicle 0.1% DMSO in parallel plates. Measurement: 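Cell viability by ATP luminescence (CellTiter-Glo) as % of non-targeting siRNA wells, and the log2 ratio of viability without drug over viability with camptothecin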. Reading the numbers: log2 vehicle/camptothecin viability: higher = stronger sensitisation to camptothecin. Active means: 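Each gene scored by redundant siRNA activity (RSA) over its individual siRNA ratios; a gene is called active at p < 0.001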.
In all, the deposit lists about 26,000 reagents; below is a random part of them. In the full data, 167 (0.63%) were called active. 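Calls are per gene from RSA p-values that are not deposited; an individual active-marked siRNA can sensitise only weakly.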 The numbers tell different reagents against one gene apart. Not all columns of the deposit are shown.

log2 vehicle/camptothecin viability, by target and reagent
DDI2: #1 0.0124 inactive; #2 -0.0852 inactive; #3 -0.373 inactive; #4 -0.112 inactive; #5 0.194 inactive; #6 0.251 inactive; #7 0.0582 inactive; #8 -0.255 inactive
PTGFR: #1 -0.214 inactive; #2 0.0715 inactive; #3 -0.188 inactive; #4 -0.147 inactive

Entries above whose target name begins with D or d (8):
log2 vehicle/camptothecin viability, by target and reagent
DDI2: #1 0.0124 inactive; #2 -0.0852 inactive; #3 -0.373 inactive; #4 -0.112 inactive; #5 0.194 inactive; #6 0.251 inactive; #7 0.0582 inactive; #8 -0.255 inactive

More records follow.
log2 vehicle/camptothecin viability, by target and reagent
TLN1: #1 -0.494 inactive; #2 -0.12 inactive; #3 -0.344 inactive; #4 0.449 inactive
DGKQ: #1 -0.598 inactive; #2 -0.105 inactive; #3 -0.156 inactive; #4 -0.371 inactive
SMC3: #1 -0.0436 inactive; #2 -0.237 inactive; #3 -0.00366 inactive; #4 -0.14 inactive
NECTIN1: #1 -0.321 inactive; #2 -0.292 inactive; #3 0.0563 inactive; #4 -0.195 inactive
